Counter-ions that a name gives are not always drawn. Some entries share one result that the patent states for a list of compounds.
Assay: Pharmacokinetics following single oral dose administration in male Sprague-Dawley rats
Assay type: in vivo
Protocol: Blood samples were collected from all animals in Groups 1-3 at 0.25, 0.5, 1, 2, 4, 6, 8, 12 and 24 hours post dose, with each animal bled at all time points. […] The slopes of the elimination phase of the concentrations vs. time curve used to calculate the T1/2 were determined by log-linear regression.
PK analyses were performed and validated using Phoenix® WinNonlin® version 8.0.
Estimated elimination half-life (tr) was also similar among treatment groups (ranged between 1.5 and 2.7 hours post-dose).

Row | SMILES | time of mean peak plasma concentration post-dose [min]
1 | CCCCCCOc1nsnc1C1=CCCN(C)C1 [Xanomeline tartrate, 3-(hexyloxy)-4-(1-methyl-1,2,5,6-tetrahydropyridin-3-yl)-1,2,5-thiadiazole, reference compound] | ≤ 30
2 | [2H]C([2H])([2H])C([2H])([2H])C([2H])([2H])C([2H])([2H])C([2H])([2H])C([2H])([2H])Oc1nsnc1C1=CCCN(C)C1 [Xanomeline-d13, 3-((hexyl-1,1,2,2,3,3,4,4,5,5,6,6,6-d13)oxy)-4-(1-methyl-1,2,5,6-tetrahydropyridin-3-yl)-1,2,5-thiadiazole] | ≤ 30
3 | [2H]C([2H])([2H])N1CCC=C(c2nsnc2OC([2H])([2H])C([2H])([2H])C([2H])([2H])C([2H])([2H])C([2H])([2H])C([2H])([2H])[2H])C1 [Xanomeline-d16, 3-((hexyl-1,1,2,2,3,3,4,4,5,5,6,6,6-d13)oxy)-4-(1-(methyl-d3)-1,2,5,6-tetrahydropyridin-3-yl)-1,2,5-thiadiazole] | ≤ 30
